Data from patent US8349851B2, “JAK kinase modulating compounds and methods of use thereof” (Ambit Biosciences Corp., priority 2009, dated 2013).
Where a name gives a salt, the structure may show the parent alone.

Tested on: 321 distinct kinases
Assay: Kinase selectivity score from competition binding panel
Conditions: kinases with inhibition of 90% or greater divided by 321 distinct kinases tested

Row | SMILES | S Score (at 10 μM)
1 | OC(c1ccc(F)cc1)c1nc(Nc2cc[nH]n2)c2ccccc2n1 (racemic) [Example 6, (R,S)-(4-(1H-pyrazol-3-ylamino)quinazolin-2-yl)(4-fluorophenyl)methanol] | A (A ≦ 0.3)
2 | Fc1ccc(C(F)c2nc(Nc3cc[nH]n3)c3ccccc3n2)cc1 (racemic) [Example 7, (R,S)-2-(fluoro(4-fluorophenyl)methyl)-N-(1H-pyrazol-3-yl)quinazolin-4-amine] | A (A ≦ 0.3)
3 | Cc1cc(Nc2nc(C(O)c3ccc(F)cc3)nc3ccccc23)n[nH]1 (racemic) [Example 12, (R,S)-(4-fluorophenyl)(4-(5-methyl-1H-pyrazol-3-ylamino)quinazolin-2-yl)methanol hydrochloride] | A (A ≦ 0.3)
4 | COC(c1ccc(F)cc1)c1nc(Nc2cc(C)[nH]n2)c2ccccc2n1 (racemic) [Example 13, (R,S)-2-((4-fluorophenyl)(methoxy)methyl)-N-(5-methyl-1H-pyrazol-3-yl)quinazolin-4-amine] | A (A ≦ 0.3)
5 | Cc1cc(Nc2nc(C(N)c3ccc(F)cc3)nc3ccccc23)n[nH]1 (racemic) [Example 14, (R,S)-2-(amino(4-fluorophenyl)methyl)-N-(5-methyl-1H-pyrazol-3-yl)quinazolin-4-amine] | A (A ≦ 0.3)
6 | N#Cc1cc(Nc2nc(C(O)c3ccc(F)cc3)nc3ccccc23)n[nH]1 (racemic) [Example 15, (R,S)-3-(2-((4-fluorophenyl)(hydroxy)methyl)quinazolin-4-ylamino)-1H-pyrazole-5-carbonitrile] | A (A ≦ 0.3)
7 | Cc1cc(Nc2nc(C(O)c3ccc(F)cc3)nc3cccc(F)c23)n[nH]1 (racemic) [Example 16, (R,S)-(5-fluoro-4-(5-methyl-1H-pyrazol-3-ylamino)quinazolin-2-yl)(4-fluorophenyl)methanol] | A (A ≦ 0.3)
8 | Cc1cc(Nc2nc(C(O)c3ccc(F)cc3)nc3cc(C(F)(F)F)ccc23)n[nH]1 (racemic) [Example 18, (R,S)-(4-fluorophenyl)(4-(5-methyl-1H-pyrazol-3-ylamino)-7-(trifluoromethyl)quinazolin-2-yl)methanol] | A (A ≦ 0.3)
9 | OC(c1ccc(F)cc1)c1nc(Nc2cc[nH]n2)c2ccc(I)cc2n1 (racemic) [Example 23, (R,S)-(4-(1H-pyrazol-3-ylamino)-7-iodoquinazolin-2-yl)(4-fluorophenyl)methanol] | A (A ≦ 0.3)
10 | Cc1ccc2c(Nc3cc(C)[nH]n3)nc(C(O)c3ccc(F)cc3)nc2c1 (racemic) [Example 25, (R,S)-(4-fluorophenyl)(7-methyl-4-(5-methyl-1H-pyrazol-3-ylamino)quinazolin-2-yl)methanol] | A (A ≦ 0.3)
11 | COc1ccc2c(Nc3cc[nH]n3)nc(C(O)c3ccc(F)cc3)nc2c1 (racemic) [Example 29, (R,S)-(4-(1H-pyrazol-3-ylamino)-7-methoxyquinazolin-2-yl)(4-fluorophenyl)methanol] | A (A ≦ 0.3)
12 | COc1ccc2c(Nc3cc(C)[nH]n3)nc(C(O)c3ccc(F)cc3)nc2c1 (racemic) [Example 31, (R,S)-(4-fluorophenyl)(7-methoxy-4-(5-methyl-1H-pyrazol-3-ylamino)quinazolin-2-yl)methanol] | A (A ≦ 0.3)
13 | Cc1cc(Nc2nc(C(O)c3ccc(F)cc3)nc3cc(O)ccc23)n[nH]1 (racemic) [Example 36, (R,S)-2-((4-fluorophenyl)(hydroxy)methyl)-4-(5-methyl-1H-pyrazol-3-ylamino)quinazolin-7-ol] | A (A ≦ 0.3)
14 | Cc1cc(Nc2nc(C(O)c3ccc(F)cc3)nc3cc(OCCN4CCOCC4)ccc23)n[nH]1 (racemic) [Example 38, (R,S)-(4-fluorophenyl)(4-(5-methyl-1H-pyrazol-3-ylamino)-7-(2-morpholinoethoxy)quinazolin-2-yl)methanol] | C (0.4 < C ≦ 0.5)
15 | Cc1cc(Nc2nc(C(O)c3ccc(F)cc3)nc3cc(OCCO)ccc23)n[nH]1 (racemic) [Example 39, (R,S)-2-(2-((4-fluorophenyl)(hydroxy)methyl)-4-(5-methyl-1H-pyrazol-3-ylamino)quinazolin-7-yloxy)ethanol] | B (0.3 < B ≦ 0.4)
16 | Cc1cc(Nc2nc(C(O)c3ccc(F)cc3)nc3cc(OCCCO)ccc23)n[nH]1 (racemic) [Example 40, (R,S)-3-(2-((4-fluorophenyl)(hydroxy)methyl)-4-(5-methyl-1H-pyrazol-3-ylamino)quinazolin-7-yloxy)propan-1-ol] | B (0.3 < B ≦ 0.4)
17 | COCCOc1ccc2c(Nc3cc(C)[nH]n3)nc(C(O)c3ccc(F)cc3)nc2c1 (racemic) [Example 42, (R,S)-(4-fluorophenyl)(7-(2-methoxyethoxy)-4-(5-methyl-1H-pyrazol-3-ylamino)quinazolin-2-yl)methanol] | D (D > 0.5)
18 | Cc1cc(Nc2nc(C(O)c3ccc(F)cc3)nc3cc(OCC(=O)OC(C)(C)C)ccc23)n[nH]1 (racemic) [Example 43, (R,S)-tert-butyl 2-(2-((4-fluorophenyl)(hydroxy)methyl)-4-(5-methyl-1H-pyrazol-3-ylamino)quinazolin-7-yloxy)acetate] | C (0.4 < C ≦ 0.5)
19 | Cc1cc(Nc2nc(C(O)c3ccc(F)cc3)nc3cc(OCC(=O)O)ccc23)n[nH]1 (racemic) [Example 44, (R,S)-2-(2-((4-fluorophenyl)(hydroxy)methyl)-4-(5-methyl-1H-pyrazol-3-ylamino)quinazolin-7-yloxy)acetic acid] | A (A ≦ 0.3)

Row | SMILES | S Score (at 10 μM)
20 | COC(=O)NC(c1ccc(F)cc1)c1nc(Nc2cc(C)[nH]n2)c2ccccc2n1 (racemic) [Example 45, (R,S)-methyl (4-fluorophenyl)(4-(5-methyl-4H-pyrazol-3-ylamino)quinazolin-2-yl) methylcarbamate] | A (A ≦ 0.3)
21 | Cc1cc(Nc2nc(C(O)c3ccc(F)cc3)nc3c(C)cccc23)n[nH]1 (racemic) [Example 46, (R,S)-(4-fluorophenyl)(8-methyl-4-(5-methyl-1H-pyrazol-3-ylamino)quinazolin-2-yl)methanol] | A (A ≦ 0.3)
22 | Cc1cc(Nc2nc(C(O)c3ccc(F)cc3)nc3cc(F)ccc23)n[nH]1 (racemic) [Example 47, (R,S)-(7-fluoro-4-(5-methyl-1H-pyrazol-3-ylamino)quinazolin-2-yl)(4-fluorophenyl)methanol] | A (A ≦ 0.3)
23 | Cc1cc(Nc2nc(C(O)c3ccc(F)cc3)nc3cc(Cl)ccc23)n[nH]1 (racemic) [Example 52, (R,S) (7-chloro-4-(5-methyl-1H-pyrazol-3-ylamino)quinazolin-2-yl)(4-fluorophenyl)methanol] | A (A ≦ 0.3)
24 | Cc1cc(Nc2nc(C(O)c3ccc(F)cc3)nc3ccc(F)cc23)n[nH]1 (racemic) [Example 54, (R,S)-(6-fluoro-4-(5-methyl-1H-pyrazol-3-ylamino)quinazolin-2-yl)(4-fluorophenyl)methanol] | A (A ≦ 0.3)
25 | OC(c1ccc(F)cc1)c1nc(Nc2cc[nH]n2)c2cc(F)ccc2n1 (racemic) [Example 55, (R,S)-(4-(1H-pyrazol-3-ylamino)-6-fluoroquinazolin-2-yl)(4-fluorophenyl)methanol] | A (A ≦ 0.3)
26 | OC(c1ccc(F)cc1)c1nc(Nc2cc[nH]n2)c2ccc(Br)cc2n1 (racemic) [Example 58, (R,S)-(4-(1H-pyrazol-3-ylamino)-7-bromoquinazolin-2-yl)(4-fluorophenyl)methanol] | A (A ≦ 0.3)
27 | Cc1cc(Nc2nc(C(O)c3ccc(F)cc3)nc3c(F)cccc23)n[nH]1 (racemic) [Example 61, (R,S)-(8-fluoro-4-(5-methyl-1H-pyrazol-3-ylamino)quinazolin-2-yl)(4-fluorophenyl)methanol] | A (A ≦ 0.3)
28 | COc1ccccc1C(O)c1nc(Nc2cc(C)[nH]n2)c2ccccc2n1 (racemic) [Example 63, (R,S)-(2-methoxyphenyl)(4-(5-methyl-1H-pyrazol-3-ylamino)quinazolin-2-yl)methanol] | A (A ≦ 0.3)
29 | Cc1cc(Nc2nc(C(O)c3ccc(F)c(F)c3)nc3ccccc23)n[nH]1 (racemic) [Example 66, (R,S)-(3,4-difluorophenyl)(4-(5-methyl-1H-pyrazol-3-ylamino)quinazolin-2-yl)methanol] | A (A ≦ 0.3)
30 | [2H]C(O)(c1ccc(F)cc1)c1nc(Nc2cc(C)[nH]n2)c2ccccc2n1 (racemic) [Example 72, (R,S) (4-fluorophenyl)(4-(5-methyl-1H-pyrazol-3-ylamino)quinazolin-2-yl)methanol-1-d] | A (A ≦ 0.3)
31 | Cc1cc(Nc2nc(C(=O)c3cccc(F)c3)nc3ccccc23)n[nH]1 [Example 1, (3-fluorophenyl)(4-(5-methyl-1H-pyrazol-3-ylamino)quinazolin-2-yl)methanone] | A (A ≦ 0.3)
32 | O=C(c1cccc(F)c1)c1nc(Nc2cc[nH]n2)c2ccccc2n1 [Example 2, (4-(1H-pyrazol-3-ylamino)quinazolin-2-yl)(3-fluorophenyl)methanone] | A (A ≦ 0.3)
33 | Cc1cc(Nc2nc(C(=O)c3ccc(F)cc3)nc3ccccc23)n[nH]1 [Example 3, (4-fluorophenyl)(4-(5-methyl-1H-pyrazol-3-ylamino)quinazolin-2-yl)methanone] | A (A ≦ 0.3)
34 | O=C(c1ccc(F)cc1)c1nc(Nc2cc[nH]n2)c2ccccc2n1 [Example 4, (4-(1H-pyrazol-3-ylamino)quinazolin-2-yl)(4-fluorophenyl)methanone] | A (A ≦ 0.3)
35 | COc1ccccc1C(=O)c1nc(Nc2cc[nH]n2)c2ccccc2n1 [Example 5, (4-(1H-pyrazol-3-ylamino)quinazolin-2-yl)(2-methoxyphenyl)methanone] | A (A ≦ 0.3)
36 | Cc1cc(Nc2nc(C(F)(F)c3ccc(F)cc3)nc3ccccc23)n[nH]1 [Example 8, 2-(difluoro(4-fluorophenyl)methyl)-N-(5-methyl-1H-pyrazol-3-yl)quinazolin-4-amine] | A (A ≦ 0.3)
37 | Fc1ccc(C(F)(F)c2nc(Nc3cc[nH]n3)c3ccccc3n2)cc1 [Example 9, 2-(difluoro(4-fluorophenyl)methyl)-N-(1H-pyrazol-3-yl)quinazolin-4-amine] | A (A ≦ 0.3)
